Taken from: PubChem BioAssay AID652259 (Drosophila RNAi Screening Center, 2013)

Purpose: 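Knock-downs that push a Wingless-driven reporter up or down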 (primary screen)
Cell system: Drosophila clone 8 imaginal disc epithelial cells
Reagent: long dsRNA against Drosophila genes
Treatment: pathway stimulated by co-transfected Wingless expression plasmid
Detection: 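Firefly luciferase from a tcf-site Wingless reporter, measured alongside co-transfected Renilla luciferase that tracks transfection; pathway stimulated by a Wingless plasmid; the firefly-to-Renilla ratio is not deposited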
Direction: firefly reporter light: higher = more Wg reporter light, before normalisation; Renilla control light: higher = more transfected or surviving cells
Call rule: 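a knock-down is a candidate when at least two out of four statistical tests show it departing from its plate mean; one test alone signals a weak candidate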
Calls: active = candidate regulator (raises or lowers reporter); inactive = not a candidate
In all, the deposit lists about 22,000 reagents; below is a random part of those with a known target gene and a result. Over the whole deposit, 233 (1.1%) got an active call. 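Light values are raw, unnormalised plate reads; the ratio scores behind the reporter calls were not deposited.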 A number with no mark means an inactive call. No sequences are given here. Not stated in the record: the amount of reagent, the time to read-out, the dose of the treatment.

Ekar (GeneID 43806)
- firefly reporter light, replicate 1: 16660
- Renilla control light, replicate 1: 11752

Drsl6 (GeneID 38416)
- firefly reporter light, replicate 1: 8131
- Renilla control light, replicate 1: 3756

l(1)G0289 (GeneID 31964)
- firefly reporter light, replicate 1: 2992
- firefly reporter light, replicate 2: 5408
- Renilla control light, replicate 1: 1179
- Renilla control light, replicate 2: 2096

TfAP-2 (GeneID 40398)
- firefly reporter light, replicate 1: 12472
- Renilla control light, replicate 1: 4567

CG11695 (GeneID 32106)
- firefly reporter light, replicate 1: 26960
- Renilla control light, replicate 1: 7499

Or69a (GeneID 2768964)
- firefly reporter light, replicate 1: 5696
- Renilla control light, replicate 1: 2144

CG4554 (GeneID 37570)
- firefly reporter light, replicate 1: 4539
- firefly reporter light, replicate 2: 8.22e5
- Renilla control light, replicate 1: 1272
- Renilla control light, replicate 2: 4.33e5

Continued; the last 2 above are carried over.
Or69a (GeneID 2768964)
- firefly reporter light, replicate 1: 5696
- Renilla control light, replicate 1: 2144

CG4554 (GeneID 37570)
- firefly reporter light, replicate 1: 4539
- firefly reporter light, replicate 2: 8.22e5
- Renilla control light, replicate 1: 1272
- Renilla control light, replicate 2: 4.33e5

CG42818 (GeneID 10178877)
- firefly reporter light, replicate 1: 3736
- firefly reporter light, replicate 2: 6530
- Renilla control light, replicate 1: 1799
- Renilla control light, replicate 2: 3035

Sirt6 (GeneID 41254)
- firefly reporter light, replicate 1: 10145
- Renilla control light, replicate 1: 2848

Cisd2 (GeneID 43459)
- firefly reporter light, replicate 1: 9632
- Renilla control light, replicate 1: 3876

CR31054 (GeneID 12798280)
- firefly reporter light, replicate 1: 8.53e5
- firefly reporter light, replicate 2: 9.84e5
- Renilla control light, replicate 1: 3.99e5
- Renilla control light, replicate 2: 4.99e5

CG7556 (GeneID 32902)
- firefly reporter light, replicate 1: 2106
- firefly reporter light, replicate 2: 6880
- Renilla control light, replicate 1: 706
- Renilla control light, replicate 2: 3444

DIP-eta (GeneID 33793)
- firefly reporter light, replicate 1: 3428
- firefly reporter light, replicate 2: 6806
- Renilla control light, replicate 1: 1120
- Renilla control light, replicate 2: 2627

Drep1 (GeneID 36290)
- firefly reporter light, replicate 1: 7494
- Renilla control light, replicate 1: 2329

CG33500 (GeneID 2768957)
- firefly reporter light, replicate 1: 3457
- Renilla control light, replicate 1: 2106

CG42397 (GeneID 8673976)
- firefly reporter light, replicate 1: 3033
- Renilla control light, replicate 1: 1545

ifc (GeneID 33836)
- firefly reporter light, replicate 1: 10624
- Renilla control light, replicate 1: 3908
